The entries are a selection whose mix differs from that of the whole data set. Single values of this set are uncertain.
Compound: COC(=O)/C=C/c1ccccc1 [methyl cinnamate]
Assay: log2 ratio of iodoacetamide-alkyne labeling of the cysteine site, DMSO over compound (competition); higher = stronger covalent engagement of the cysteine by the compound, active = 1 or more
Conditions: 500 µM; treatment time 1 h; system: HEK293T cell lysate
Outline: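 HEK293T lysate (2 mg/mL) was incubated with electrophile (500 µM) or vehicle for 1 h at ambient temperature and then with iodoacetamide alkyne for 1 h. Labelled proteins were clicked to sCIP-TMT reagents, pooled, digested, enriched on streptavidin and measured by Orbitrap Eclipse LC-MS/MS with FAIMS, with FragPipe quantification. The per-cysteine log2 competition ratio is mean control-channel reporter intensity over mean compound-channel reporter intensity. Across three replicates with duplicate channels, cysteines quantified in only one replicate were excluded.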

Protein sequences, listed by entry. Tags and fused reporters are not part of them. Lines headed by an entry give the natural chain unless they say otherwise; changes in a name come on top.
UniProt Q86WQ0: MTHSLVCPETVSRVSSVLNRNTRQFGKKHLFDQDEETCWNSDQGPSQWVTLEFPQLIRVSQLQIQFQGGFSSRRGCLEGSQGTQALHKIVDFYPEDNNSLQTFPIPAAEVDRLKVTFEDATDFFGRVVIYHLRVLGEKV
UniProt Q7Z5L9: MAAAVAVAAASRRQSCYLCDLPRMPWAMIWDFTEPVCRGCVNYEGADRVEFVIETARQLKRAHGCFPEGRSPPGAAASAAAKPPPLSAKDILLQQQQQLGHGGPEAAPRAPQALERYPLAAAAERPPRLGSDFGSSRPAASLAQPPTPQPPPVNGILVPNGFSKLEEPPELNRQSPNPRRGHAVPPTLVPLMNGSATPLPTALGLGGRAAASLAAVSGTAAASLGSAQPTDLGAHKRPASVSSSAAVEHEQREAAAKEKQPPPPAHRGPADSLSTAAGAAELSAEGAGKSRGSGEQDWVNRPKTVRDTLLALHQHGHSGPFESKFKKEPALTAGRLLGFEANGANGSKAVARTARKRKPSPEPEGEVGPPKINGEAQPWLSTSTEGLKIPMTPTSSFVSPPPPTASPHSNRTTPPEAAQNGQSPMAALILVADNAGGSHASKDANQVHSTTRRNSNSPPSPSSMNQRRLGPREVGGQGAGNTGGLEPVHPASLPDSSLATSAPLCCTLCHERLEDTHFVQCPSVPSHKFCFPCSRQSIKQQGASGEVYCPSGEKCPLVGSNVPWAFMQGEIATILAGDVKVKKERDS
UniProt Q8IYB7: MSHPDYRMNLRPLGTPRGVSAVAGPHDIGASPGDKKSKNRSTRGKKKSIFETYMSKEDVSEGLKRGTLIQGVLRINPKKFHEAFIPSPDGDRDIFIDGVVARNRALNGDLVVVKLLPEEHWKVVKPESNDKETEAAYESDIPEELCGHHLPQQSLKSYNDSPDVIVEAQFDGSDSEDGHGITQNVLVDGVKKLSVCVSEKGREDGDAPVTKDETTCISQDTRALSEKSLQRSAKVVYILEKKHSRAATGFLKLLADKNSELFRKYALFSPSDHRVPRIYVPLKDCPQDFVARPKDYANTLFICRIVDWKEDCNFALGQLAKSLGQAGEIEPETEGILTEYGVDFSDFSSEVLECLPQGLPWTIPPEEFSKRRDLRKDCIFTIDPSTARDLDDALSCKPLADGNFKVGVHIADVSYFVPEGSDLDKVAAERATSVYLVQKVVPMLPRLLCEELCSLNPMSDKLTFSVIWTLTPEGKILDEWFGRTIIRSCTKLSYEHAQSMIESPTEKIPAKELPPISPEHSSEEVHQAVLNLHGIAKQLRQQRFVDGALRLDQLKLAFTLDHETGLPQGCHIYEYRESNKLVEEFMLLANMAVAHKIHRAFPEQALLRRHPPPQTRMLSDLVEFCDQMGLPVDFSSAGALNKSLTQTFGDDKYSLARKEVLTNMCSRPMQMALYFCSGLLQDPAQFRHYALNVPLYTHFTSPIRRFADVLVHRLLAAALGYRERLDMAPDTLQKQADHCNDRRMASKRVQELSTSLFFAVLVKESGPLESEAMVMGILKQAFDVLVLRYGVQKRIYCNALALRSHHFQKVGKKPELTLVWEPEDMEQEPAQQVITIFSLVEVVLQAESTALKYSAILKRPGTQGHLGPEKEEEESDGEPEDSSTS
UniProt Q86U38: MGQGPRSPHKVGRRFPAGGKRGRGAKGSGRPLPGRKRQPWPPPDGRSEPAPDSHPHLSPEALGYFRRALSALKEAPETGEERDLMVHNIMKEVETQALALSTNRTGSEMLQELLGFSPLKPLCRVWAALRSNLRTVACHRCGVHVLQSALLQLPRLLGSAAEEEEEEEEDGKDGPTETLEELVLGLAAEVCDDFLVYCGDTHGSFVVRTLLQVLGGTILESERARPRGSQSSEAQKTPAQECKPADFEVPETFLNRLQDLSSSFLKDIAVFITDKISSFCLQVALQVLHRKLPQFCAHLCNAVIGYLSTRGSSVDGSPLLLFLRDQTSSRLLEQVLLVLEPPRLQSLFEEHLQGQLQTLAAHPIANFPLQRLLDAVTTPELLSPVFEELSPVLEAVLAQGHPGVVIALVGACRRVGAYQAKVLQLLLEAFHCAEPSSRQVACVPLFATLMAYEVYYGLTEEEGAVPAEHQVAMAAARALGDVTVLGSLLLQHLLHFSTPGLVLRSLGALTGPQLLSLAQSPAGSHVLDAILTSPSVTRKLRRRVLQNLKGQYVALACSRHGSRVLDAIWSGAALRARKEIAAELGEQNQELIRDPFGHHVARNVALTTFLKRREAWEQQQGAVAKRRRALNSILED
UniProt Q86UW6: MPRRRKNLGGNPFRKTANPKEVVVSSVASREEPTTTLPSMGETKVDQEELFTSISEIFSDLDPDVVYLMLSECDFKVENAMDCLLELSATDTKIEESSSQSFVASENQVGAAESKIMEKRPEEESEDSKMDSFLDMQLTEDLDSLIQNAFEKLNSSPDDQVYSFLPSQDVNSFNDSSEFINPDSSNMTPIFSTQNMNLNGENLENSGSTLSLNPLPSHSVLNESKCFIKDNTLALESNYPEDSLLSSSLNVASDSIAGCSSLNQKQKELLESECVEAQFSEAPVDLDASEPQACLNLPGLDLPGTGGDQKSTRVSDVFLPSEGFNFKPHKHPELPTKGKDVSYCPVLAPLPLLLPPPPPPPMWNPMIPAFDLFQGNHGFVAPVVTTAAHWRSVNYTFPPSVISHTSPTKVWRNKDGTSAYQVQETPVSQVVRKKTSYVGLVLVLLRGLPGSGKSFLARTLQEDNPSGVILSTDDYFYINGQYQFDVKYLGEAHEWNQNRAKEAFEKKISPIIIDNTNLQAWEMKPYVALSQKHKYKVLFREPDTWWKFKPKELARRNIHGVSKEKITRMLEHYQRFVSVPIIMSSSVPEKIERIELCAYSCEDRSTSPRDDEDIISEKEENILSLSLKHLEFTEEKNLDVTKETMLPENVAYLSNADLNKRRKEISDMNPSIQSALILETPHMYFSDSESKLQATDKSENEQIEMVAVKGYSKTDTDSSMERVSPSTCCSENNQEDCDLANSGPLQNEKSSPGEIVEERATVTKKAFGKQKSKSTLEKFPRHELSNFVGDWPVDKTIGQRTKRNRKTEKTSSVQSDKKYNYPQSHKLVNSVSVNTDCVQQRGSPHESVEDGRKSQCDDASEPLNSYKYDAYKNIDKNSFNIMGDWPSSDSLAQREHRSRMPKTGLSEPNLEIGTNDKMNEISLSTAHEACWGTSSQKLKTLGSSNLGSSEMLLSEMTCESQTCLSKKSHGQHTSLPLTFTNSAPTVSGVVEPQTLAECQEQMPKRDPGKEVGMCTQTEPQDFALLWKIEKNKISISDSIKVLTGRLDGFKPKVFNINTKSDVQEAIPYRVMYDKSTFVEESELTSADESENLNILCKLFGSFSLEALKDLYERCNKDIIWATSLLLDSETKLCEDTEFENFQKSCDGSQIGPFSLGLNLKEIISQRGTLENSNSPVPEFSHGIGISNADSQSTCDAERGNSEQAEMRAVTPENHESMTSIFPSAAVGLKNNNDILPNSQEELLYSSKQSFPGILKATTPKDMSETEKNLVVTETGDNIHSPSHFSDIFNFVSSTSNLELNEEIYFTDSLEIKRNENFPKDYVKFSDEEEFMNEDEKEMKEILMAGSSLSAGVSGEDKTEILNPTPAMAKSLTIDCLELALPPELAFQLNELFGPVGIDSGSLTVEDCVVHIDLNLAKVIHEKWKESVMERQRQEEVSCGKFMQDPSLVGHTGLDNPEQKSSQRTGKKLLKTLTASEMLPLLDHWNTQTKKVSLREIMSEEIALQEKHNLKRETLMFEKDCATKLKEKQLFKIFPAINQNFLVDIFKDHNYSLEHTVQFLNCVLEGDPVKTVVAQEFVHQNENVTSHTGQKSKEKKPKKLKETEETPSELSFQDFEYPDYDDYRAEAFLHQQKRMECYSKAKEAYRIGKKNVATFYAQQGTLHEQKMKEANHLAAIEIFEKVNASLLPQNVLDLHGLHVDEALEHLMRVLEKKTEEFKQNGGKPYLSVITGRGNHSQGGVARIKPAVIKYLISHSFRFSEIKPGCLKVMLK
UniProt Q8IWV7: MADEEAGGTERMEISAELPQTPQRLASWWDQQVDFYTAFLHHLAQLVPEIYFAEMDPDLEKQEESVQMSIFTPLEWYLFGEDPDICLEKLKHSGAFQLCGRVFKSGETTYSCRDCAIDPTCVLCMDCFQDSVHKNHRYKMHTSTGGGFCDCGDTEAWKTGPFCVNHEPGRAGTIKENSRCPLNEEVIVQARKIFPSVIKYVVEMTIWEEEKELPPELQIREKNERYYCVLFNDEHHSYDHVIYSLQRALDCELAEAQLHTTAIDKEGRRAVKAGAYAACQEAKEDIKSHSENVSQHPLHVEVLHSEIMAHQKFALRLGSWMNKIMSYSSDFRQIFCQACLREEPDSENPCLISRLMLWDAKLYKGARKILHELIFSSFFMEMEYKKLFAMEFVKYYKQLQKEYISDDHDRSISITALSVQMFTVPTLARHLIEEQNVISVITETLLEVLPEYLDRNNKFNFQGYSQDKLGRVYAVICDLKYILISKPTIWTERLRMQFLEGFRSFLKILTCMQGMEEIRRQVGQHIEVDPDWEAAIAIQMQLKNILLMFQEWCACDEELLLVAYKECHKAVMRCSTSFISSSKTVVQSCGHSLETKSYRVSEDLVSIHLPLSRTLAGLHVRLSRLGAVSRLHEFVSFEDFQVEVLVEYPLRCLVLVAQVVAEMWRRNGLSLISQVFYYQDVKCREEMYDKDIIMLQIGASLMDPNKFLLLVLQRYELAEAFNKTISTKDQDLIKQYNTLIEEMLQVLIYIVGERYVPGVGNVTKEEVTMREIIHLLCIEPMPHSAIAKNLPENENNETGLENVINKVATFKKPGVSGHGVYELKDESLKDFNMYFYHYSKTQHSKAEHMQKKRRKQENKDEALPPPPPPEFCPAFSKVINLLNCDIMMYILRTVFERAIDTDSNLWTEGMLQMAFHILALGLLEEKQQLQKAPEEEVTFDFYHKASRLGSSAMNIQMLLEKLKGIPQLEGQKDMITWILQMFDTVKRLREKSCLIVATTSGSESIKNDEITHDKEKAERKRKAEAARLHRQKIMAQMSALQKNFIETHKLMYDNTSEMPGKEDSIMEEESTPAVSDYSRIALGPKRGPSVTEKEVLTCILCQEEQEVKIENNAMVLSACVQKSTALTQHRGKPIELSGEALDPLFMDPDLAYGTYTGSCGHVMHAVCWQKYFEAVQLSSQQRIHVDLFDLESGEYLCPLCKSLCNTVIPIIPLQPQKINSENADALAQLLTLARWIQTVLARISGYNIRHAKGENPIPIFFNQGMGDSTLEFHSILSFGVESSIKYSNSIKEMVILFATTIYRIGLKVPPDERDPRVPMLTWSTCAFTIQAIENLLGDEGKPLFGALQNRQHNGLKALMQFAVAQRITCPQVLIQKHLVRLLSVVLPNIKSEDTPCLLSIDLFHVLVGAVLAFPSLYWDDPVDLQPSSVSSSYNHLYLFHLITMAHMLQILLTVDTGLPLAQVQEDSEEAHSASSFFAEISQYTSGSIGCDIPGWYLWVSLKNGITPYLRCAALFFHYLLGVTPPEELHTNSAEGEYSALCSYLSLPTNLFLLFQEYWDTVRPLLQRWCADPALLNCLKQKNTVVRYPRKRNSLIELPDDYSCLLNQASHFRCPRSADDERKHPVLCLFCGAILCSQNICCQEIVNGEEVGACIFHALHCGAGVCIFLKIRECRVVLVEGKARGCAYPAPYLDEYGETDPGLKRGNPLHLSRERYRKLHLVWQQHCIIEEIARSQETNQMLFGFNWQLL
UniProt Q8IZ69: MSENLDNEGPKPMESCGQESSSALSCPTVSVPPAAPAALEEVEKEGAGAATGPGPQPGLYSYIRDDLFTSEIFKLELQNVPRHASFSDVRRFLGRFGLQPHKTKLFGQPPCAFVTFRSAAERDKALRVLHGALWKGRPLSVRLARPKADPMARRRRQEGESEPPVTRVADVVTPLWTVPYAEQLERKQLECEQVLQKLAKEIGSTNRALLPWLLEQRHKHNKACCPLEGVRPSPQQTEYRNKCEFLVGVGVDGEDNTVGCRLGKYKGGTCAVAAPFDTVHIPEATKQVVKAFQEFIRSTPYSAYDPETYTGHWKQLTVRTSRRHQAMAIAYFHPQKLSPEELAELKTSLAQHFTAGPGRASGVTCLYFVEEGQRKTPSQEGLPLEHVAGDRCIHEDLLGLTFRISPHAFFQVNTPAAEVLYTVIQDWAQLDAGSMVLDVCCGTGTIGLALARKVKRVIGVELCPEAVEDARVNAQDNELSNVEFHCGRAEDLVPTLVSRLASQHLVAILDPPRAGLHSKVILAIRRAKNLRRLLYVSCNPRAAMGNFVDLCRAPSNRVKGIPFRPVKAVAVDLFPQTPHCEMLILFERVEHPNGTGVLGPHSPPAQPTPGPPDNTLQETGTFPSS
UniProt Q7RTV0, whole entry, looked up: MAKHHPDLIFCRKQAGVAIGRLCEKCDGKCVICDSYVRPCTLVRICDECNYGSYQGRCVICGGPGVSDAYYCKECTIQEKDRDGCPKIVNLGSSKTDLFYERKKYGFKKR

log2 ratio of iodoacetamide-alkyne labeling, inactive:
CEP97 C396 (UniProt Q8IW35) -0.142
PEG10 C119 (UniProt Q86TG7) -0.0124
ALDH16A1 C350 (UniProt Q8IZ83) 0.0866
UniProt Q7Z434_C46 -0.167
NR2C2AP C7 (UniProt Q86WQ0) 0.159
ATG9A C764 (UniProt Q7Z3C6) 0.298
KTN1 C736 (UniProt Q86UP2) 0.209
IRF2BP2 C16 (UniProt Q7Z5L9) 0.12
UniProt Q7Z2T5_C656 0.29
IRF2BP2 C65 (UniProt Q7Z5L9) 0.127
DIS3L2 C312 (UniProt Q8IYB7) 0.147
UniProt Q86U38_C123 0.0733
HUWE1 C3259 (UniProt Q7Z6Z7) 0.57
DHX30 C1183 (UniProt Q7L2E3) -0.0704
FTSJ3 C197 (UniProt Q8IY81) -0.0517
SLFN11 C51 (UniProt Q7Z7L1) -0.0631
N4BP2 C1145 (UniProt Q86UW6) 0.217
WDR75 C12 (UniProt Q8IWA0) 0.0357
UBR1 C1603 (UniProt Q8IWV7) 0.174
SUPT6H C575 (UniProt Q7KZ85) -0.221
ERC1 C258 (UniProt Q8IUD2) 0.146
POGZ C547 (UniProt Q7Z3K3) -0.1
WDFY1 C287 (UniProt Q8IWB7) 0.216
IRF2BP2 C40 (UniProt Q7Z5L9) -0.0254
ZFYVE16 C174 (UniProt Q7Z3T8) 0.114
CRLF3 C95 (UniProt Q8IUI8) 0.0319
TSEN54 C338 (UniProt Q7Z6J9) 0.193
CYFIP1 C1241 (UniProt Q7L576) 0.105
FASTKD5 C525 (UniProt Q7L8L6) -0.0786
CCAR1 C579 (UniProt Q8IX12) 0.00252
PXK C570 (UniProt Q7Z7A4) 0.313
TRMT2A C270 (UniProt Q8IZ69) 0.073
CAND1 C571 (UniProt Q86VP6) 0.109
DIS3L2 C216 (UniProt Q8IYB7) 0.411
UniProt Q7RTV0_C40 0.138
CHERP C246 (UniProt Q8IWX8) -0.0552
SLFN11 C842 (UniProt Q7Z7L1) 0.286

Two records picked at random from those above, as already listed:
log2 ratio of iodoacetamide-alkyne labeling, inactive:
UniProt Q7RTV0_C40 0.138
DIS3L2 C312 (UniProt Q8IYB7) 0.147

From the supplement of paper PMC11006884
